Primary screen of a compound library

The values are deposited in ChEMBL (CHEMBL3988442, “University of Dundee, Small-Polar-MMV Screening Library” (2021)).

Results are given as percent effect. The record does not define 0% and 100%; most values in the screen are far below 50% and negative numbers occur (in some assays of this library far below -100). Compounds were drawn at random from those tested, without regard to their results. Two or more numbers in one place are separate tests of the same structure; such repeats can differ widely.

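Viability assay of Plasmodium falciparum sporozoites; the read-out is not stated. The concentration is filed as 10 mM, unlikely as a test dose, so the dose is not known. Direction is inferred from retests: higher values go with lower viability. Strong results were mostly tested again. About 34,000 compounds were tested under these conditions; 0.84% (about 280) showed 50% or more at least once.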

c1ccc2ncc(CC3CCNC3)cc2c1 (configuration not stated) read 2.067%.
CCc1cc(NCCNC(=O)c2cccnc2)n2nc(C)c(C)c2n1 read -6.709%.
CO[C@@H]1CO[C@@]2(CCCN(C(=O)C3CC=CC3)C2)C1 read 3.16%.
Cc1nc(C)n(CC2CCCN(CCOc3ccc(C#N)cc3)C2)n1 (configuration not stated) read -0.23%.
CC(NC(=O)N1CCC1)c1ccc(S(N)(=O)=O)cc1 (configuration not stated) read 8.564%.
CN1CCN(C(=O)C2SCCc3sccc32)CC1 (configuration not stated) read -9.989%.
Cc1cc(C)n2cc(CN3CCC(N4CCN(C)C4=O)CC3)nc2n1 read -3.72%.
CC(C)c1ncncc1C(=O)N1CCN(Cc2ccsc2)CC1 read -0.6561%.
COc1ccc(Oc2cc(CN)ccn2)cc1 read -2.865%.
Clc1ccc2cccnc2c1CN1CCCC1Cn1cncn1 (configuration not stated) read -4.428%.
O=C(O)C(F)(F)F.O=C(O)C(F)(F)F.[H][C@@]12COC[C@]1(C(=O)NCCc1cccs1)CN(Cc1ccccn1)C2 read 11.5%.
Cc1cs/c(=N\C(=O)c2c3c(nc4onc(C)c24)CCC3)[nH]1 read -6.685%.
CC(C)C(=O)NC1CCCN(C(=O)c2cc(Cl)ccc2O)C1 (configuration not stated) read 9.498%.
COCC1CC2(CCN(Cc3ccoc3)CC2)CN1Cc1ccccn1 (configuration not stated) read 2.452%.
CNC(=O)CSc1cnn(CC(=O)Nc2cccc(Cl)c2C)c(=O)c1Cl read 7.202%.
CC(C)c1nnc(CN2CCN(CC(O)c3ccccc3)CC2)o1 (configuration not stated) read 5.404%.
O=C(C1CCOC1)N1CCC2(CC1)COC2 (configuration not stated) read 3.415%.
O=C(Cc1cccc(F)c1F)NS(=O)(=O)c1ccc(Cl)cc1F read 1.427%.
CN(C)c1ccc(C(=O)N2CCN(c3cnccn3)CC2)cn1 read -6.936%.
Cc1ccc(N2CCC3(CCN(Cc4csc(C)n4)C3=O)C2)nn1 (configuration not stated) read 15.94%.
CNC(=O)CCNC(=O)c1cccc(Cn2nc(C)cc2C)c1 read -0.224%.
COc1cc(N2CCC3(CC2)CNC(=O)CO3)ncn1 read -2.654%.
CCc1nnc2n1CCN(CC(=O)Nc1sccc1C#N)C2 read 11.17%.
O=C(O)c1cc(/C=C/c2ccc3ccccc3c2)ncn1 read -9.314%.
O=C(O)C(F)(F)F.[H][C@@]12CN(C(=O)NC(C)C)C[C@]1([H])C(=O)N(Cc1cccc(C)n1)C2 read 4.116%.
OCCCNC1CCc2cc3c(cc21)OCCO3 (configuration not stated) read -6.625% & -14.28%.
O=C(Cc1csc(-c2ccco2)n1)N1CCSCC1 read 4.643%.
OCCN1CCC(F)(F)C2(CCN(c3cccnc3)C2)C1 (configuration not stated) read 6.564%.

The last 2 entries again:

structure	effect
O=C(Cc1csc(-c2ccco2)n1)N1CCSCC1	4.643%
OCCN1CCC(F)(F)C2(CCN(c3cccnc3)C2)C1 (configuration not stated)	6.564%